Experimental data published in the supplement of paper PMC10398353.
Counter-ions that a name gives are not always drawn. ± gives the standard deviation of the averaged measurements. The list shows a part of the results. Single values of this set are uncertain.

System: Salmonella enterica serovar Typhimurium ST313 D23580
Experiment: normalized bacterial growth (OD600 20 h minus 0 h, interquartile-mean normalized) (fraction of plate interquartile mean); higher = more bacterial growth (less inhibition)
Details: LPM (pH 5.8, low phosphate, low Mg2+), concentration: 10 µM, temperature: 37 °C

SMILES | normalized bacterial growth
N#C/C(=C\c1cccc(O)c1)C(=O)O [alpha-CYANO-3-HYDROXYCINNAMIC ACID] | 1.1
O=C([O-])c1ccccc1-c1c2cc(Br)c(=O)cc-2oc2[c]([Hg+])c([O-])c(Br)cc12.[Na+].[Na+].[OH-] | 0.0635
O=C([O-])c1ccccc1-c1c2cc(Br)c(=O)cc-2oc2[c]([Hg+])c([O-])c(Br)cc12.[Na+].[Na+].[OH-] [Merbromin] | 0.0162
CC(=O)O[C@@H]1C[C@@]2(C)[C@H](c3ccoc3)C[C@H]3O[C@]32[C@]2(C)C(=O)C(O)=C3C(C)(C)C(=O)C=C[C@]3(C)[C@@H]12 | 1.12
O=c1[nH]c2ccccc2n1CCCN1CCC(n2c(=O)[nH]c3cc(Cl)ccc32)CC1 [Domperidone] | 0.956
COP(=S)(OC)SCn1nnc2ccccc2c1=O | 0.98
C=C1[C@H]2C[C@@]3([C@@H]1O)[C@@H](C[C@@H]2O)[C@]12[C@@H]4C[C@H]3[C@H]1N(CC)C[C@]4(C)CC[C@@H]2O [Napelline] | 0.871
C#C[C@]1(O)CC[C@H]2[C@@H]3CCC4=CC(=O)CC[C@]4(C)[C@H]3CC[C@@]21C | 1.11
C#C[C@]1(O)CC[C@H]2[C@@H]3CCC4=CC(=O)CC[C@]4(C)[C@H]3CC[C@@]21C [Ethisterone] | 0.867
CC(C)[N+](C)(CCC(C(N)=O)(c1ccccc1)c1ccccc1)C(C)C | 1.3
CC(C)=CCCC1=CC(=O)c2c(O)ccc(O)c2C1=O | 1.31
C/C=C1/C[N+]2(C)CCC34C(=C(C=O)[C@H]1C[C@@H]32)Nc1ccccc14 (some centres undefined) [Fluorocurarine chloride] | 0.776
CC(C)CC(N(C)C)C1(c2ccc(Cl)cc2)CCC1 (centres undefined) | 0.475
C=CCN1CC[C@]23c4c5ccc(O)c4O[C@H]2/C(=N/NC(=O)c2ccccc2)CC[C@@]3(O)[C@H]1C5 [Naloxone benzoylhydrazone] | 1.28
C[C@H]1CCC[C@@H](O)CCCCCc2cc(O)cc(O)c2C(=O)O1 | 1.05
Nc1ncn[nH]1 | 1.17
COc1ccc(CN2CCNCC2)c(OC)c1OC [Trimetazidine dihydrochloride] | 0.82
CCCN(CCC)CCc1c[nH]c2ccc(C(N)=O)cc12 ["N,N-Dipropyl-5-carboxamidotryptamine maleate"] | 1.02
C[C@H]1CCCC(=O)CCC/C=C/c2cc(O)cc(O)c2C(=O)O1 | 1.09
CC(C)=CCCC1(C)C=Cc2c(O)c3c(c(CC=C(C)C)c2O1)OC12C(CC4CC1C(C)(C)OC2(C/C=C(/C)C(=O)O)C4O)C3=O (centres undefined) | 0.986
CC[C@H]1CN2CC[C@H]1C[C@@H]2[C@@H](O)c1ccnc2ccc(OC)cc12 | 1.02
c1ccc2c(N3CCNCC3)cccc2c1 [1-(1-Naphthyl)piperazine hydrochloride] | 1.07

Part of the list above, set out differently:
SMILES,normalized bacterial growth
C#C[C@]1(O)CC[C@H]2[C@@H]3CCC4=CC(=O)CC[C@]4(C)[C@H]3CC[C@@]21C,1.11
C#C[C@]1(O)CC[C@H]2[C@@H]3CCC4=CC(=O)CC[C@]4(C)[C@H]3CC[C@@]21C [Ethisterone],0.867
CC(C)[N+](C)(CCC(C(N)=O)(c1ccccc1)c1ccccc1)C(C)C,1.3
CC(C)=CCCC1=CC(=O)c2c(O)ccc(O)c2C1=O,1.31
C/C=C1/C[N+]2(C)CCC34C(=C(C=O)[C@H]1C[C@@H]32)Nc1ccccc14 (some centres undefined) [Fluorocurarine chloride],0.776
CC(C)CC(N(C)C)C1(c2ccc(Cl)cc2)CCC1 (centres undefined),0.475
C=CCN1CC[C@]23c4c5ccc(O)c4O[C@H]2/C(=N/NC(=O)c2ccccc2)CC[C@@]3(O)[C@H]1C5 [Naloxone benzoylhydrazone],1.28
C[C@H]1CCC[C@@H](O)CCCCCc2cc(O)cc(O)c2C(=O)O1,1.05
Nc1ncn[nH]1,1.17
COc1ccc(CN2CCNCC2)c(OC)c1OC [Trimetazidine dihydrochloride],0.82
"CCCN(CCC)CCc1c[nH]c2ccc(C(N)=O)cc12 [""N,N-Dipropyl-5-carboxamidotryptamine maleate""]",1.02

(cont.)

SMILES | normalized bacterial growth
CC(C)[C@@H]1NC(=O)[C@H](C)OC(=O)[C@@H](C(C)C)NC(=O)[C@@H](C(C)C)OC(=O)[C@H](C(C)C)NC(=O)[C@H](C)OC(=O)[C@@H](C(C)C)NC(=O)[C@@H](C(C)C)OC(=O)[C@H](C(C)C)NC(=O)[C@H](C)OC(=O)[C@@H](C(C)C)NC(=O)[C@@H](C(C)C)OC1=O | 0.935
C=C[C@H]1CN2CC[C@H]1C[C@H]2[C@H](OC(=O)OCC)c1ccnc2ccc(OC)cc12 | 1.12
O=C(N[C@H]1CN2CCC1CC2)c1ccc(Cl)cc1 | 1.13
O=[N+]([O-])c1ccc2nc(N3CCNCC3)ccc2c1 ["Quipazine, 6-nitro-, maleate"] | 0.881
C[C@]12CC[C@H]3[C@@H](CCC4=CC(=O)CC[C@@H]43)[C@@H]1CC[C@@H]2O [Nandrolone] | 1.23
OC[C@@H]1[C@@H](O)[C@H](O)[C@H]2[C@@H](O)CCN21 | 1.05
Cc1cc(O)ccc1Cl | 1.05
CC12CCC3C(CCC4=C(O)C(=O)CCC43C)C1CCC2=O (centres undefined) ["4-Androsten-4-ol-3,17-dione"] | 0.702
CCCN(CCC)c1c([N+](=O)[O-])cc(C(F)(F)F)cc1[N+](=O)[O-] | 1.12
N[C@@H](Cn1ccc(=O)[nH]c1=O)C(=O)O [S(-)-Willardiine] | 1.37
CC(=O)O[C@H]1C[C@@H](OC(C)=O)C(C)(C)C2C[C@@H](OC(C)=O)[C@]3(C)C(CC[C@@]4(C)[C@H](c5ccoc5)C(=O)[C@H]5O[C@]543)[C@]21C (some centres undefined) | 0.774
CCCC(=O)O[C@@H]1[C@@H](C)[C@@]2(O)[C@@H](C=C(CO)C[C@]3(O)C(=O)C(C)=C[C@@H]23)[C@@H]2C(C)(C)[C@]12OC(=O)CCC | 0.722
C=C(C)[C@H]1CN[C@H](C(=O)O)[C@H]1CC(=O)O | 1.16 ± 0.18
C[C@@H]1CC[C@@]2(OC1)O[C@H]1[C@@H](O)[C@H]3[C@@H]4CC[C@H]5C[C@@H](O[C@@H]6O[C@H](CO)[C@H](O[C@@H]7O[C@H](CO)[C@@H](O)[C@H](O[C@@H]8OC[C@@H](O)[C@H](O)[C@H]8O)[C@H]7O[C@@H]7O[C@H](CO)[C@H](O)[C@H](O[C@@H]8O[C@H](CO)[C@@H](O)[C@H](O)[C@H]8O)[C@H]7O)[C@H](O)[C@H]6O)[C@H](O)C[C@]5(C)[C@H]4CC[C@]3(C)[C@H]1[C@@H]2C | 1.18
CN1[C@@H]2CC[C@H]1C[C@@H](OC(=O)[C@H](CO)c1ccccc1)C2 | 1.1 ± 0.042
CN1[C@@H]2CC[C@H]1C[C@@H](OC(=O)[C@H](CO)c1ccccc1)C2 [L-Hyoscyamine] | 1.04
CN1[C@@H]2CC[C@H]1C[C@@H](OC(=O)[C@H](CO)c1ccccc1)C2 [Hyoscyamine (L)] | 1.01
C[C@H](N)CN1CCc2ccc(Br)cc21 [VER-3323 hemifumarate salt] | 0.764
C[C@]12CC[C@H](O)C[C@H]1CC[C@@H]1[C@@H]2CC[C@]2(C)[C@@H](c3ccc(=O)oc3)CC[C@]12O | 0.918
ClC1=C(Cl)C2(Cl)C3C(Cl)C(Cl)CC3C1(Cl)C2(Cl)Cl (centres undefined) | 1.05
O=C1CN=C(c2ccccc2Cl)c2cc([N+](=O)[O-])ccc2N1 | 1.4
C[C@H]1O[C@H](O[C@H]2[C@H](O)[C@@H](O)[C@@H](O)[C@H](O)[C@@H]2O)[C@@H](N)C[C@@H]1NC(=N)C(=O)O | 1.03
